According to paper PMC9876638:
No constants are given. Whether binding was seen depends on the method and setting. Binding seen in cells or lysates may run through a third protein. Some binding calls cover weakened binding; strength is not graded here.

Chains of the proteins cited; added tags and fusions are not shown. Residues count along the entry.
UniProt P08025, residues 49-118: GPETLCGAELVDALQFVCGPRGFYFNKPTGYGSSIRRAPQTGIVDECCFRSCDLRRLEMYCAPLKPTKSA
UniProt P15473, residues 28-292: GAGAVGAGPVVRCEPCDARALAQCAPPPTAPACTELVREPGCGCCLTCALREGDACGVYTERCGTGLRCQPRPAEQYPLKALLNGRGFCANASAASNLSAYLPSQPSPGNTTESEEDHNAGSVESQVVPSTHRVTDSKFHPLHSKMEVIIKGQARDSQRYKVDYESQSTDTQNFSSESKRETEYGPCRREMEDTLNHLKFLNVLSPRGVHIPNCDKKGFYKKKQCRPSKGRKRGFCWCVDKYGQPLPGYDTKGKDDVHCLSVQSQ

Target: Insulin-like growth factor 1 (rat (endogenous in H9c2)) (UniProt P08025)
Assay: co-IP; total cellular extract of H9c2 cells (with or without 1.0 uM Dox for 24 h); 500 ug protein with 3 ug primary antibody overnight at 4°C, Protein G magnetic beads, washed with PBS, eluted at 95°C, western blot; the legend calls the association extracellular

“Insulin-like growth factor binding protein 3 (from UniProt P15473 28-292)” was tested, and the binding was “binds”.
